In patent publication US10463716B2 (UNIVERSITY OF MARYLAND, BALTIMORE, priority 2014, dated 2019):

Test system: C57/BL mice
Assay: MI-induced heart failure by coronary artery ligation, echocardiography
Format: in vivo, mouse
Conditions: ELA infusion, Week 5
Method: C57/BL wild type mice at age of 14-16 months old were used. Mice were subjected to either MI by permanent ligation or sham treatment with a loose suture of the proximal left anterior descending (LAD) coronary artery under general anesthesia by 2% isoflurane inhalation, and mechanical ventilation via oral intubation. Left thoracotomy in the 3-4 intercostal space was performed and the pericardium was opened to expose the LV and the LAD. The artery was circled a 8-0 silk suture, and then either ligated permanently or remained loose (sham).
Twelve to 14 mice were used in each group.
Data were calculated with the accepted formulae, which have been validated in mice.
Coronary artery ligation (CAL) is a well-used procedure to create a mouse model of acute myocardial infarction (MI) and heart failure (HF). […] Echocardiography was conducted to access heart function before the procedure (baseline), and at 1 week and 5 weeks post-MI.

SMILES: CSCC[C@H](NC(=O)[C@@H](NC(=O)[C@H](CC(C)C)NC(=O)[C@H](CC(N)=O)NC(=O)[C@@H](NC(=O)[C@@H]1CCCN1C(=O)[C@H](CCCNC(=N)N)NC(=O)[C@@H](N)CCC(N)=O)C(C)C)[C@@H](C)O)C(=O)N[C@@H](CCCNC(=N)N)C(=O)N[C@@H](CCCNC(=N)N)C(=O)N[C@@H](CCCCN)C(=O)N[C@@H](CC(C)C)C(=O)N[C@@H](CCCNC(=N)N)C(=O)N[C@@H](CCCCN)C(=O)N[C@@H](Cc1c[nH]cn1)C(=O)N[C@@H](CC(N)=O)C(=O)N[C@H]1CSSC[C@@H](C(=O)N[C@@H](CCSC)C(=O)N2CCC[C@H]2C(=O)N[C@@H](CC(C)C)C(=O)N[C@@H](Cc2c[nH]cn2)C(=O)N[C@@H](CO)C(=O)N[C@@H](CCCNC(=N)N)C(=O)N[C@H](C(=O)N2CCC[C@H]2C(=O)N[C@@H](Cc2ccccc2)C(=O)N2CCC[C@H]2C(=O)O)C(C)C)NC(=O)[C@H](CCCNC(=N)N)NC(=O)[C@H](CCCNC(=N)N)NC(=O)[C@H](CCC(N)=O)NC(=O)[C@H](CC(C)C)NC1=O [ELA, Elabela]
- BW: 32.73 ± 1.38 g
- HR: 505.14 ± 12.73 bpm
